Source: the supplement of paper PMC10849652
This is one part of the list.

Amino acid sequences for entries named in this document (tags omitted). A change or cut given only in a name is not applied to a line headed by its entry.
UniProt Q8N0Y7: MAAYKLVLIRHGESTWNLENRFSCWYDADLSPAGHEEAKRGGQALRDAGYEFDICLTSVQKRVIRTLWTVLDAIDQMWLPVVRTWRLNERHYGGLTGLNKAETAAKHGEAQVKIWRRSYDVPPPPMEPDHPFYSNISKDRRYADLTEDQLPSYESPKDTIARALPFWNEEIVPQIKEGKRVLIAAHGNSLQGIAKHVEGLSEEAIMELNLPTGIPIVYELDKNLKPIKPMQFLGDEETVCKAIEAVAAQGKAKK
UniProt O15173: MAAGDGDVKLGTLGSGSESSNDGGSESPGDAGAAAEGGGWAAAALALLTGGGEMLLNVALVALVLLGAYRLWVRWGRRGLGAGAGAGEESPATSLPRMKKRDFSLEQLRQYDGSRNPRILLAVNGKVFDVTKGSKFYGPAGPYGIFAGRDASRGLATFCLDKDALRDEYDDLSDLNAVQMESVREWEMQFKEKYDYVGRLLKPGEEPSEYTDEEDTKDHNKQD
UniProt Q4KWH8: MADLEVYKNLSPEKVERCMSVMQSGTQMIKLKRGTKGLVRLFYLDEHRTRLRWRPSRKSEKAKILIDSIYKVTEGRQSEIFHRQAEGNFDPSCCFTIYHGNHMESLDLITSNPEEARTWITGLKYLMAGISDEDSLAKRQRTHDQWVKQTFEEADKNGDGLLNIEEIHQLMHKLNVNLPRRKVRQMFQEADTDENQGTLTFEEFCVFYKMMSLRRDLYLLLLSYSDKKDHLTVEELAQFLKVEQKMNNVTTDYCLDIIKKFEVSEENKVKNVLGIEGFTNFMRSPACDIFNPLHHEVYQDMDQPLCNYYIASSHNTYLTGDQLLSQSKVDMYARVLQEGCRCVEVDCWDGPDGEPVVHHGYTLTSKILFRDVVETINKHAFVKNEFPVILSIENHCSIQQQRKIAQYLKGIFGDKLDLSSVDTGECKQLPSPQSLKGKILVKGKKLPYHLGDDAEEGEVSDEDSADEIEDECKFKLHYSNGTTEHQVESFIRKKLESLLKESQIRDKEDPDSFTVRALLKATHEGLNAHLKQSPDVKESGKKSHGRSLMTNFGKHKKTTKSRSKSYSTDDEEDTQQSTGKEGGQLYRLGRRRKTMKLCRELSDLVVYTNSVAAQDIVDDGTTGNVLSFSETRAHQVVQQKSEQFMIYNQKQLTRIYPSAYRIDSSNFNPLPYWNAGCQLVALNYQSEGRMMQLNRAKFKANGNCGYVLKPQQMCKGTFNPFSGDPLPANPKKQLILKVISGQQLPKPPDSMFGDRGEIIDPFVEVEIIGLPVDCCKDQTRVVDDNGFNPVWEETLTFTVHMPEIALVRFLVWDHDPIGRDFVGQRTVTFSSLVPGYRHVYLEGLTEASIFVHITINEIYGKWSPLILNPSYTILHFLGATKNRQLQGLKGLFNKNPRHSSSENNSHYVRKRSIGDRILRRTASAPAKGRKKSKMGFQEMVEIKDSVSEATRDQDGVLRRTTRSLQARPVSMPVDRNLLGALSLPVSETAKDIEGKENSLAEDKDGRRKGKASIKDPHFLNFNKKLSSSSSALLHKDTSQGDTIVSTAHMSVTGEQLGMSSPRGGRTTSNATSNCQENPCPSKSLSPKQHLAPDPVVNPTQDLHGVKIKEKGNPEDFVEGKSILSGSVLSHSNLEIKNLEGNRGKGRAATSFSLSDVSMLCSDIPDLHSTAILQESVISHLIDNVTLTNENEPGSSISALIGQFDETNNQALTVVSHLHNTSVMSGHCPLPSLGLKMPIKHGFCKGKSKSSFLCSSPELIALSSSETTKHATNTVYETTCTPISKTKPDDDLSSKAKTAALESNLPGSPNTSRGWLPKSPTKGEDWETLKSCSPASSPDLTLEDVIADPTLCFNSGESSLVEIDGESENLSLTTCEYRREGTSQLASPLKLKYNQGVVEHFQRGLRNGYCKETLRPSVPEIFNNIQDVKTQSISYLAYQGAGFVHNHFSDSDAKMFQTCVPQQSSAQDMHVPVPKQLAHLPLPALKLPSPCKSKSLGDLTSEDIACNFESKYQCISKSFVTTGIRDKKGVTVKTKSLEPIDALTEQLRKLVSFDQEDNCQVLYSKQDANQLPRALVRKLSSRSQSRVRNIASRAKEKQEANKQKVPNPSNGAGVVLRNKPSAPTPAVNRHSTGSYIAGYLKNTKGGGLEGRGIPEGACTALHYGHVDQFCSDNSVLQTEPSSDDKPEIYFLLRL
UniProt Q9NQP4, whole entry, looked up: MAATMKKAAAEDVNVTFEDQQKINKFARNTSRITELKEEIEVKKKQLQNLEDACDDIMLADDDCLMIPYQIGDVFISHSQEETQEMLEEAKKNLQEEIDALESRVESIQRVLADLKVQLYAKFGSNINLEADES
UniProt P42356, whole entry, looked up: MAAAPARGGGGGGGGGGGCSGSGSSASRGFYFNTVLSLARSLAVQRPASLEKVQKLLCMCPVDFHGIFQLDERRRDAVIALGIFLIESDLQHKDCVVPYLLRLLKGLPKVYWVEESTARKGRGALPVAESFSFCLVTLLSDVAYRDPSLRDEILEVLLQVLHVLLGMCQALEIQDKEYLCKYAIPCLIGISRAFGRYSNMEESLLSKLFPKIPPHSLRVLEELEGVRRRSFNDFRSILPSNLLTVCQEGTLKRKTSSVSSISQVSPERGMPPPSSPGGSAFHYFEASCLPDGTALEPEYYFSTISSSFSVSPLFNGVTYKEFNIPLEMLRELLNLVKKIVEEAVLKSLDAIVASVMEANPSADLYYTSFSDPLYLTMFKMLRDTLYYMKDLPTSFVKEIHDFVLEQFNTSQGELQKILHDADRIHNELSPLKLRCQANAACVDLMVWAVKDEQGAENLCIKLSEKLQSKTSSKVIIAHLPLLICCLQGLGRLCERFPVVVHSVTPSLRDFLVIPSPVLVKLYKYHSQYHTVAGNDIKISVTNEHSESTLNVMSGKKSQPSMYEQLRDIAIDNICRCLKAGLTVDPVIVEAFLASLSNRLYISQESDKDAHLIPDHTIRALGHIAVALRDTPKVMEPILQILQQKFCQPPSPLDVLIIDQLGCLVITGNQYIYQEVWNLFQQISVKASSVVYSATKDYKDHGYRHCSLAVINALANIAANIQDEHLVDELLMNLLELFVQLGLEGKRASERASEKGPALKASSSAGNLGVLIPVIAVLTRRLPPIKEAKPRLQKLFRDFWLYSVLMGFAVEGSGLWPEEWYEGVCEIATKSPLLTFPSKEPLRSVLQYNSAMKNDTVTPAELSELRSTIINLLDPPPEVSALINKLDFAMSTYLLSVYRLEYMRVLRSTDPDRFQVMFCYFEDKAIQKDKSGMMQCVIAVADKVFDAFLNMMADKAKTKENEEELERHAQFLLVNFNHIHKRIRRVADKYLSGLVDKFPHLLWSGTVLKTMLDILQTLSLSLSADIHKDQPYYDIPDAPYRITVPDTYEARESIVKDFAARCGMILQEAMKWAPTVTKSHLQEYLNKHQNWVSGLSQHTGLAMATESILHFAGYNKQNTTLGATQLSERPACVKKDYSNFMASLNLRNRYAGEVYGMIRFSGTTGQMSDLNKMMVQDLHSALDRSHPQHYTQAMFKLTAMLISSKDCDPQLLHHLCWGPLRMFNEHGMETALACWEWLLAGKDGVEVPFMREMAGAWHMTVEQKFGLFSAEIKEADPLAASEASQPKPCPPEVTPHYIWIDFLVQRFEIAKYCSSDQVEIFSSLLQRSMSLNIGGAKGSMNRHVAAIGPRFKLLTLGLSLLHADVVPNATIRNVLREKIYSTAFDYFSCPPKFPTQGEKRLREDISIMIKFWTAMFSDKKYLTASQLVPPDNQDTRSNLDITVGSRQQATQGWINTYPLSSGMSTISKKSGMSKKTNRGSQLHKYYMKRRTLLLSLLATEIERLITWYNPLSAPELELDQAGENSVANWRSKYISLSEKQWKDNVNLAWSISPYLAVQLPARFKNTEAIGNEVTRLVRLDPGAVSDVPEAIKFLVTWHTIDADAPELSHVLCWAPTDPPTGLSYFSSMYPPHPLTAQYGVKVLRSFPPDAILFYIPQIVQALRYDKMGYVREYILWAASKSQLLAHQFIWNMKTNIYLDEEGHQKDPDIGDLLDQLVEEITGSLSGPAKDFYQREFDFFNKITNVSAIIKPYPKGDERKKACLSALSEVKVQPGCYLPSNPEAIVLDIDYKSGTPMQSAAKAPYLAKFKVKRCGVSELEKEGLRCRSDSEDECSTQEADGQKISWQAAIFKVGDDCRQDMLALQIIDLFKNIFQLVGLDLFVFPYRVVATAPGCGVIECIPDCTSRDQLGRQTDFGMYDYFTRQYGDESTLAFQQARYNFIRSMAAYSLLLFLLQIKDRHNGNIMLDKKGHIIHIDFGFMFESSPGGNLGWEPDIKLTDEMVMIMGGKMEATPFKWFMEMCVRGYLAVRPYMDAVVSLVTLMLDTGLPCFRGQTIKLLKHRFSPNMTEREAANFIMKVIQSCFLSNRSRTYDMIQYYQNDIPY
UniProt P30613: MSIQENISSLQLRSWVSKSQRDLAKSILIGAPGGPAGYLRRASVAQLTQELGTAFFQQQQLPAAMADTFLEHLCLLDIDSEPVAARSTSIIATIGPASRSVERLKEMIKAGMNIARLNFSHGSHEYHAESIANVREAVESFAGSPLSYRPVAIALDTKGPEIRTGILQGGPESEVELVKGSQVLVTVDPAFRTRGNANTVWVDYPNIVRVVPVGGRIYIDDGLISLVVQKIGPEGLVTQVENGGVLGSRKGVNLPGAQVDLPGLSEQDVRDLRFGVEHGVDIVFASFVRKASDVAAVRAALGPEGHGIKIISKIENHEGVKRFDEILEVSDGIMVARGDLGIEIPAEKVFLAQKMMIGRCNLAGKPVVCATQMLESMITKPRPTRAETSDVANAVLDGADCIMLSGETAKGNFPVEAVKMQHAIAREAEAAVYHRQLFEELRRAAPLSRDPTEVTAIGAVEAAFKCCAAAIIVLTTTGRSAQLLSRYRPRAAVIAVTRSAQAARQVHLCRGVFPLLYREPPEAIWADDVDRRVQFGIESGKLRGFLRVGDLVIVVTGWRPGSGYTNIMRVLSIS
UniProt Q13608: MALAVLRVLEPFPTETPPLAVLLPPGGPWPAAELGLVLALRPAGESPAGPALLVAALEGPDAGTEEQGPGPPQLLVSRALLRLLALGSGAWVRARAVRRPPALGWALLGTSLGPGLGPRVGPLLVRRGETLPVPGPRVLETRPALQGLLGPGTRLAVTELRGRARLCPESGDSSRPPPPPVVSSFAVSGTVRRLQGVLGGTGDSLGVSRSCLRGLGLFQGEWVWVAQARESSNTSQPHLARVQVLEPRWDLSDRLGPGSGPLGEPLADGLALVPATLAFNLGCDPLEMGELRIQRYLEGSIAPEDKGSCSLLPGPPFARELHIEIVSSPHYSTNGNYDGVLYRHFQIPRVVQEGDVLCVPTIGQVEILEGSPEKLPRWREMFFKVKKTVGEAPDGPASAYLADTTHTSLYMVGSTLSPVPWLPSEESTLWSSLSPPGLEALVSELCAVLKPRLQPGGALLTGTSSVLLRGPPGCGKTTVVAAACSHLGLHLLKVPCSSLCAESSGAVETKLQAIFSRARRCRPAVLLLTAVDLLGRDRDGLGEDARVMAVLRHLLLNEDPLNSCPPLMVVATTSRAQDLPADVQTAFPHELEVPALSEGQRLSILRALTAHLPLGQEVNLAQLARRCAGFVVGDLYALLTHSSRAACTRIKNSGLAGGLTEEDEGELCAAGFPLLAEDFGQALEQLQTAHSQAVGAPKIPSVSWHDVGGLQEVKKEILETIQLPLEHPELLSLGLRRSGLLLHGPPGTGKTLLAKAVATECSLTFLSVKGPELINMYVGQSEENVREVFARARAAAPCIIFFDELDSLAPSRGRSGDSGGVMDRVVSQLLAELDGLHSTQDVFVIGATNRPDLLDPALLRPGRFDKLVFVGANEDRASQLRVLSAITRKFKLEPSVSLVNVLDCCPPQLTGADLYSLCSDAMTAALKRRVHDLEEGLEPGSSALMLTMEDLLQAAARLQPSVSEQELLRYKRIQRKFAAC
UniProt O60825: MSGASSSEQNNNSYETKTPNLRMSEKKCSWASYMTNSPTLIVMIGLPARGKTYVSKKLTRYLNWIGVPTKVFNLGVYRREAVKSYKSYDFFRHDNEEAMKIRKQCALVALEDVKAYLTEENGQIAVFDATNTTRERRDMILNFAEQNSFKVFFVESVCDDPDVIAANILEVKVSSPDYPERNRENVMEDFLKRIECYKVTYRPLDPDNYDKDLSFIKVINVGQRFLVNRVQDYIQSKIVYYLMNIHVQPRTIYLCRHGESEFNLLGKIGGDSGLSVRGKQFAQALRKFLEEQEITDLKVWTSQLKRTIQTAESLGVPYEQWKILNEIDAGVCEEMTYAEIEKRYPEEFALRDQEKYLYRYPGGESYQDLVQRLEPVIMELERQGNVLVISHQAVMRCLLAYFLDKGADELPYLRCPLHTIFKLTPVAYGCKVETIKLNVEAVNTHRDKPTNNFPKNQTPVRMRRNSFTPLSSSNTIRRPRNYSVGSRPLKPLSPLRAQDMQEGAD
UniProt O15212, whole entry, looked up: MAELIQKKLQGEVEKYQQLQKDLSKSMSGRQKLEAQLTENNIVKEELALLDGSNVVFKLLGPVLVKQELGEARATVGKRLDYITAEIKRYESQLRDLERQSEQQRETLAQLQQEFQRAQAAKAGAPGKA

How the values were obtained:
Test in all cases: log2 fold change, soluble protein after heating vs DMSO (PISA); higher = thermal stabilisation; K562 cells, 10 uM, 30 min; active = over 0.2 and 3.5 SD of the protein, either way, in both replicates (recomputed)
saracatinib = compound: CN1CCN(CCOc2cc(OC3CCOCC3)c3c(Nc4c(Cl)ccc5c4OCO5)ncnc3c2)CC1 [saracatinib]
Outline: (§1)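 K562 cells at 2×10^6 cells/mL were given 10 μM compound for 30 min. Aliquots then went through 3 min of heating across 48°C-58°C, were pooled, and were extracted in PBS with 0.5% NP-40 at 4°C, and the supernatant after 21,000xg for 90 min was quantified by TMTpro 16plex LC-MS/MS with channel sums equalised. Thermal stability relative to control samples, from duplicates, is given as log2 fold change.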

sotrastaurin = compound: CN1CCN(c2nc(C3=C(c4c[nH]c5ccccc45)C(=O)NC3=O)c3ccccc3n2)CC1 [sotrastaurin]
Outline: as §1

alvocidib = compound: CN1CC[C@H](c2c(O)cc(O)c3c(=O)cc(-c4ccccc4Cl)oc23)[C@H](O)C1 [alvocidib]
Outline: as §1

Tubastatin A = compound: CN1CCc2c(c3ccccc3n2Cc2ccc(C(=O)NO)cc2)C1 [Tubastatin A]
Outline: as §1

[1] = compound: CNC(=O)C1=CC=CC=C1NC2=NC(=NC=C2Cl)NC3=C(C=C(C=C3)N4CCOCC4)OC
Outline: as §1

defactinib = compound: CNC(=O)c1ccc(Nc2ncc(C(F)(F)F)c(NCc3nccnc3N(C)S(C)(=O)=O)n2)cc1 [defactinib]
Outline: as §1

rucaparib = compound: CNCc1ccc(-c2[nH]c3cc(F)cc4c3c2CCNC4=O)cc1 [rucaparib]
Outline: as §1

[2] = compound: CNc1nc(-c2ccc3c(N)n[nH]c3c2)cc(N2C[C@@H](C(=O)NC3CCCCC3)CC[C@H]2C)n1
Outline: as §1

encorafenib = compound: COC(=O)N[C@@H](C)CNc1nccc(-c2cn(C(C)C)nc2-c2cc(Cl)cc(NS(C)(=O)=O)c2F)n1 [encorafenib]
Outline: as §1

[3] = compound: COC(=O)[C@H](CCSC)NC(=O)C1=C(C=C(C=C1)NC[C@H](CS)N)C2=CC=CC=C2
Outline: as §1

Measured: log2 fold change

PGAM4 (UniProt Q8N0Y7)
inactive: saracatinib 0.027 | sotrastaurin 0.035 | alvocidib -0.009 | Tubastatin A -0.026 | [1] -0.044 | defactinib -0.001 | rucaparib 0.004 | [2] -0.014 | encorafenib -0.058 | [3] 0.033

PICALM (UniProt Q13492)
inactive: saracatinib 0.021 | sotrastaurin 0.031 | alvocidib -0.041 | Tubastatin A 0.01 | [1] -0.025 | defactinib -0.034 | rucaparib -0.011 | [2] -0.036 | encorafenib 0.002 | [3] 0.013

PLAA (UniProt Q9Y263)
inactive: saracatinib 0.009 | sotrastaurin -0.061 | alvocidib -0.084 | Tubastatin A 0.12 | [1] -0.014 | defactinib -0.059 | rucaparib -0.017 | [2] 0.039 | encorafenib 0.038 | [3] 0

PGM2 (UniProt Q96G03)
inactive: saracatinib 0.081 | sotrastaurin 0.02 | alvocidib 0.004 | Tubastatin A -0.017 | [1] -0.029 | defactinib -0.007 | rucaparib -0.068 | [2] -0.013 | encorafenib 0.005 | [3] 0.015

PFDN5 (UniProt Q99471)
inactive: saracatinib 0.02 | sotrastaurin -0.026 | alvocidib -0.054 | Tubastatin A 0.061 | [1] -0.003 | defactinib -0.035 | rucaparib -0.024 | [2] 0.006 | encorafenib -0.029 | [3] -0.124

PGRMC2 isoform 2 (UniProt O15173)
inactive: saracatinib 0.026 | sotrastaurin -0.005 | alvocidib -0.03 | Tubastatin A -0.003 | [1] -0.018 | defactinib -0.036 | rucaparib 0.039 | [2] 0.005 | encorafenib -0.033 | [3] -0.035

PLCH1 (UniProt Q4KWH8)
inactive: saracatinib -0.059 | sotrastaurin 0.15 | alvocidib 0.008 | Tubastatin A -0.008 | [1] -0.095 | defactinib -0.019 | rucaparib -0.05 | [2] 0.005 | encorafenib 0.035 | [3] 0

PFKL isoform 2 (UniProt P17858)
inactive: saracatinib -0.019 | sotrastaurin 0.071 | alvocidib -0.002 | Tubastatin A -0.028 | [1] -0.043 | defactinib -0.032 | rucaparib -0.015 | [2] 0 | encorafenib 0.002 | [3] -0.016

PIEZO1 (UniProt Q92508)
inactive: saracatinib 0.042 | sotrastaurin 0.102 | alvocidib 0.002 | Tubastatin A 0.02 | [1] 0.022 | defactinib 0.009 | rucaparib 0.039 | [2] -0.003 | encorafenib -0.067 | [3] 0.007

PEX3 (UniProt P56589)
inactive: saracatinib 0.044 | sotrastaurin 0 | alvocidib 0.045 | Tubastatin A 0.202 | [1] -0.11 | defactinib -0.176 | rucaparib 0.264 | [2] 0.108 | encorafenib 0.023 | [3] 0.116

PFDN4 (UniProt Q9NQP4)
inactive: saracatinib 0.031 | sotrastaurin 0.02 | alvocidib 0.049 | Tubastatin A 0.163 | [1] -0.007 | defactinib 0.045 | rucaparib -0.048 | [2] -0.048 | encorafenib -0.027 | [3] -0.003

PGK1 (UniProt P00558)
inactive: saracatinib -0.019 | sotrastaurin 0.044 | alvocidib -0.044 | Tubastatin A -0.003 | [1] 0.012 | defactinib -0.005 | rucaparib -0.036 | [2] -0.008 | encorafenib -0.024 | [3] 0.01

PI4KA (UniProt P42356)
inactive: saracatinib -0.056 | sotrastaurin -0.134 | alvocidib 0.083 | Tubastatin A 0.062 | [1] -0.001 | defactinib -0.014 | rucaparib 0.184 | [2] -0.006 | encorafenib 0.106 | [3] -0.005

PHF3 (UniProt Q92576)
inactive: saracatinib -0.123 | sotrastaurin -0.187 | alvocidib 0.312 | Tubastatin A 0.003 | [1] -0.129 | defactinib 0.281 | rucaparib 0.132 | [2] 0.065 | encorafenib 0.053 | [3] 0.038

PKLR (UniProt P30613)
inactive: saracatinib 0.028 | sotrastaurin 0.019 | alvocidib -0.029 | Tubastatin A -0.008 | [1] -0.069 | defactinib -0.006 | rucaparib -0.051 | [2] -0.016 | encorafenib -0.009 | [3] 0.023

PEX6 (UniProt Q13608)
inactive: saracatinib 0.013 | sotrastaurin 0.089 | alvocidib 0.008 | Tubastatin A 0.021 | [1] 0.069 | defactinib -0.01 | rucaparib 0.002 | [2] -0.054 | encorafenib 0.016 | [3] -0.021

PIP (UniProt P12273)
inactive: saracatinib -0.451 | sotrastaurin -0.118 | alvocidib -0.237 | Tubastatin A 0.066 | [1] 0.162 | defactinib -0.042 | rucaparib -0.186 | [2] 0.053 | encorafenib -0.357 | [3] 0.218

Copied from the results shown (two entries):
PKLR (UniProt P30613)
inactive: saracatinib 0.028 | sotrastaurin 0.019 | alvocidib -0.029 | Tubastatin A -0.008 | [1] -0.069 | defactinib -0.006 | rucaparib -0.051 | [2] -0.016 | encorafenib -0.009 | [3] 0.023

PEX6 (UniProt Q13608)
inactive: saracatinib 0.013 | sotrastaurin 0.089 | alvocidib 0.008 | Tubastatin A 0.021 | [1] 0.069 | defactinib -0.01 | rucaparib 0.002 | [2] -0.054 | encorafenib 0.016 | [3] -0.021

(continued)

PFKFB2 (UniProt O60825)
inactive: saracatinib 0.006 | sotrastaurin 0.046 | alvocidib -0.019 | Tubastatin A -0.029 | [1] -0.036 | defactinib -0.012 | rucaparib -0.009 | [2] -0.012 | encorafenib -0.004 | [3] -0.013

PIGA (UniProt P37287)
inactive: saracatinib -0.057 | sotrastaurin 0.011 | alvocidib -0.02 | Tubastatin A -0.024 | [1] 0.041 | defactinib 0.027 | rucaparib -0.02 | [2] -0.158 | encorafenib 0.007 | [3] 0.018

PHF6 (UniProt Q8IWS0)
inactive: saracatinib -0.081 | sotrastaurin 0.012 | alvocidib 0.187 | Tubastatin A 0.054 | [1] 0.042 | defactinib 0.144 | rucaparib 0.27 | [2] 0.047 | encorafenib 0.145 | [3] -0.023

PI4KB (UniProt Q9UBF8)
inactive: saracatinib 0.008 | sotrastaurin 0.028 | alvocidib -0.052 | Tubastatin A 0.01 | [1] -0.023 | defactinib -0.078 | rucaparib 0.002 | [2] 0.068 | encorafenib -0.046 | [3] 0.013

PHACTR4 isoform 2 (UniProt Q8IZ21)
inactive: saracatinib 0.062 | sotrastaurin 0.094 | alvocidib 0.011 | Tubastatin A -0.047 | [1] -0.015 | defactinib -0.03 | rucaparib 0.022 | [2] 0.003 | encorafenib -0.035 | [3] 0.071

PIH1D1 (UniProt Q9NWS0)
inactive: saracatinib -0.026 | sotrastaurin -0.074 | alvocidib -0.012 | Tubastatin A 0.006 | [1] 0.026 | defactinib -0.092 | rucaparib -0.01 | [2] -0.032 | encorafenib 0.122 | [3] 0.022

PEX2 (UniProt P28328)
inactive: saracatinib 0.072 | sotrastaurin 0.051 | alvocidib 0.007 | Tubastatin A -0.008 | [1] -0.021 | defactinib -0.043 | rucaparib -0.069 | [2] -0.015 | encorafenib -0.074 | [3] -0.041

PFDN6 (UniProt O15212)
inactive: saracatinib -0.016 | sotrastaurin 0.02 | alvocidib 0.019 | Tubastatin A 0.02 | [1] -0.018 | defactinib -0.002 | rucaparib -0.014 | [2] -0.017 | encorafenib -0.014 | [3] -0.03

PHF23 (UniProt Q9BUL5)
inactive: saracatinib 0.04 | sotrastaurin 0.023 | alvocidib 0.013 | Tubastatin A 0.053 | [1] 0 | defactinib -0.054 | rucaparib -0.004 | [2] -0.045 | encorafenib -0.02 | [3] 0.055

PIN1 (UniProt Q13526)
inactive: saracatinib 0.041 | sotrastaurin -0.012 | alvocidib -0.115 | Tubastatin A 0.012 | [1] 0.027 | defactinib -0.126 | rucaparib 0.054 | [2] -0.04 | encorafenib -0.02 | [3] -0.066

PIK3R2 (UniProt O00459)
inactive: saracatinib -0.059 | sotrastaurin -0.025 | alvocidib -0.032 | Tubastatin A 0.008 | [1] 0.067 | defactinib -0.106 | rucaparib -0.061 | [2] 0.015 | encorafenib 0.076 | [3] 0.012

PFKM isoform 3 (UniProt P08237)
inactive: saracatinib 0.025 | sotrastaurin 0.034 | alvocidib -0.005 | Tubastatin A -0.03 | [1] -0.023 | defactinib -0.018 | rucaparib -0.046 | [2] -0.006 | encorafenib -0.022 | [3] -0.006
